Source: US20030027152A1, “Generation of diagnostic tools to assay the human LHX3/P-LIM/LIM-3 factor” (Indiana University Advanced Research and Technology …, published 2003)
No constants are given. Whether binding was seen depends on the method and setting. In cells and extracts the contact can be indirect. Some binding calls cover weakened binding; strength is not graded here. For some assays here: Tags and fused reporters may be left off the sequences shown.

T1: GST-pLhx3 fusion protein (porcine) (UniProt O97581)
T1 sequence: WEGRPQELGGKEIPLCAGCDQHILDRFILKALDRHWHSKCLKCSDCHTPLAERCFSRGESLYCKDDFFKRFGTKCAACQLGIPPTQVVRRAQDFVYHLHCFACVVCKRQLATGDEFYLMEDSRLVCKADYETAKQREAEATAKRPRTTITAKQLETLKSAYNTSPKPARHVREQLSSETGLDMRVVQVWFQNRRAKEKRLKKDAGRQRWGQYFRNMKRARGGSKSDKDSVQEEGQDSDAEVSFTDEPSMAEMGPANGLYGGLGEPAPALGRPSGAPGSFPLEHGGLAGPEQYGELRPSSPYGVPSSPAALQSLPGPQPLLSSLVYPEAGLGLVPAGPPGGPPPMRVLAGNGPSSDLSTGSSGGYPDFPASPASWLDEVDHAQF

T2: NLI (nuclear LIM interactor), murine (mouse) (UniProt P70662)
T2 sequence (35S-methionine radiolabel, looked up): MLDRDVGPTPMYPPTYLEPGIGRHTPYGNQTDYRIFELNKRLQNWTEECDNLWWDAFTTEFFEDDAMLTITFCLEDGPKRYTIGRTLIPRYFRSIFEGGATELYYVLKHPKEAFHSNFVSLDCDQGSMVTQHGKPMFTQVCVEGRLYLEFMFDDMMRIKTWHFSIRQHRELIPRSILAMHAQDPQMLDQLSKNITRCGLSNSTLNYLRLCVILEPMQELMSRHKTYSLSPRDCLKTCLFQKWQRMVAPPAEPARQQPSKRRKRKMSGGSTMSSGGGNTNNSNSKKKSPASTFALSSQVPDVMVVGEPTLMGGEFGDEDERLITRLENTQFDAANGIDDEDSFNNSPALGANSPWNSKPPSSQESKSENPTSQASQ

T3: rat Pit-1 (rat) (UniProt P10037)
T3 sequence (35S-methionine radiolabel (in vitro translated protein), looked up): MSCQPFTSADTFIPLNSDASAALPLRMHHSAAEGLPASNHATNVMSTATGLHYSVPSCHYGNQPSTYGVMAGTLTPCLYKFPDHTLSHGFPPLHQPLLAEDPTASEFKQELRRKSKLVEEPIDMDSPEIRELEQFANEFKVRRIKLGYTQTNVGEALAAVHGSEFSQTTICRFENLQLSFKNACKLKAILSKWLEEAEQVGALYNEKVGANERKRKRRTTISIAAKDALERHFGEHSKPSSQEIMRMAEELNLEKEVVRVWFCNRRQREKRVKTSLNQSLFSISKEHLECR

B1: NLI (nuclear LIM interactor), murine (protein, mouse, UniProt P70662-3 1-375, looked up)
chain: T2 sequence (35S-methionine radiolabel, looked up)
modifications: 35S-methionine radiolabel
B2: porcine Lhx3 (pLhx3) (protein)
chain: T1 sequence
modifications: 35S-methionine radiolabel (in the pull-down assay)
B3: GST-pLhx3 fusion protein (protein, not shown: a dimerising Fc or GST)
chain: T1 sequence

Experiments:
[1] = target: T1, GST-pLhx3 fusion protein (porcine); assay: GST pull-down of 35S-labelled in vitro translated protein; SDS-PAGE and fluorography
[2] = target: T2, NLI (nuclear LIM interactor), murine (mouse); assay: in vitro protein/protein interaction assay (GST pull-down)
[3] = target: T3, rat Pit-1 (rat); assay: as above
[4] = target: T2, NLI (nuclear LIM interactor), murine (mouse); assay: GST pull-down of 35S-labelled in vitro translated protein; fluorography
[5] = target: T3, rat Pit-1 (rat); assay: as above
[6] = target: GST-NLI fusion protein (mouse) [GST: P08515]; assay: GST pull-down of 35S-labelled in vitro translated protein; SDS-PAGE and fluorography

Row | Binder | binding [1] | binding [2] | binding [3] | binding [4] | binding [5] | binding [6]
1 | B1 | binds | – | – | – | – | –
2 | B2 | – | binds | binds | binds | binds | binds
3 | B3 | – | binds | binds | – | – | –
